From patent US20190055231A1, “BACE1 INHIBITORS” (Hoffmann-La Roche Inc., priority 2016, published 2019)
Some of these results come from one statement about several compounds together.

Test system: Aβ40 in brain of wild-type mice
Experiment: Mouse acute in vivo model (inhibition of Aβ40 in brain of wild-type mice)
Details: single p.o. dose 3 mg/kg, 4 h post dose
Experimental: Mouse Acute In Vivo Model (Inhibition of Aβ40 in Brain of Wild-Type Mice)
Single Dose Efficacy in Mice
The mouse single dose efficacy was measured in brain homogenate from C57Bl/6J wildtype mice after DEA extraction as described in H. Hilpert et al., J. Med. Chem. 2013, 56, 3980-3995 (dx.doi.org/10.1021/jm400225m).
Aβ 40 concentration was determined after solid phase extraction as described above and following a modified protocol from Perkin-Elmer with a commercially available antibody against the N-terminal part of rat Aβ (252Q6, Invitrogen cat. No. AMB0062) and an in-house C-terminal specific anti-Aβ40 antibody (BAP-24, Brockhaus M. et al., J. Neuroreport, 1998, 9:1481-1486) bound to acceptor beads (PerkinElmer, Cat. 6772002). […] Then, a mixture of biotinylated BAP24 antibody (1:2000 diluted at approximately 1 nM final concentration) and antibody 252Q6 bound to AlphaLISA acceptor beads (Perkin-Elmer cat. No. 6772002 (1:100 diluted, 10 ug/mL final concentration) in 1× AlphaLISA buffer (Perkin-Elmer, AL000F) was added. After 1 hour room temperature incubation in the dark, 20 uL of a streptavidin coated donor beads dilution (40 μg/mL) were added and incubated for 30 minutes in the dark. Light emission at 615 nm was recorded using an EnVision AlphaScreen Reader (Perkin-Elmer). Levels of Aβ40 were calculated as percentage of the baseline samples from non-treated animals. […]

Row | SMILES | Brain Aβ-lowering 3 mg/kg (listed as comparator 1) | Brain Aβ-lowering 3 mg/kg (listed as comparator 2)
1 | C[C@]1(c2nc(NC(=O)c3ccc(C#N)cn3)ccc2F)N=C(N)O[C@H](C(F)(F)F)C1(F)F [Comparator 1, N-(6-((4R,6S)-2-Amino-5,5-difluoro-4-methyl-6-(trifluoromethyl)-5,6-dihydro-4H-1,3-oxazin-4-yl)-5-fluoropyridin-2-yl)-5-cyanopicolinamide] | 2-10% | –
2 | Cc1cc(C#N)cnc1C(=O)Nc1ccc(F)c([C@@]2(C)N=C(N)O[C@H](C(F)(F)F)C2(F)F)n1 [Comparator 2, N-(6-((4R,6S)-2-Amino-5,5-difluoro-4-methyl-6-(trifluoromethyl)-5,6-dihydro-4H-1,3-oxazin-4-yl)-5-fluoropyridin-2-yl)-5-cyano-3-methylpicolinamide] | – | 2-10%
